The values are deposited in ChEMBL (CHEMBL3988442, “University of Dundee, Small-Polar-MMV Screening Library” (2021)).

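Viability assay of Plasmodium falciparum sporozoites; the read-out is not stated. The concentration is filed as 10 mM, unlikely as a test dose, so the dose is not known. Higher reads as lower viability (inferred: compounds with an IC50 in retests scored well above the rest). Strong results were mostly tested again. Size under these conditions: about 34,000 compounds, about 280 of them at 50% or above in at least one test.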

Values are the deposited “Percent Effect”, in %. How 0% and 100% were set is not recorded. Most values in the screen are low, and negative values occur. The compounds are a random part of those screened. Two or more numbers in one place are separate tests of the same structure; such repeats can differ widely.

Compound	effect
O=C(CCc1ccc(Cl)s1)N1CCCC(n2cncn2)C1 (stereo not shown)	-5.51
O=C(O)C(F)(F)F.[H][C@@]12CN(C(=O)NC(C)C)C[C@]1([H])C(=O)N(Cc1csc(C)n1)C2	4.377
O=C(c1cc2c([nH]c1=O)CCC2)N1CCCC1c1ccccn1 (stereo not shown)	0.355
O=C(O)C(F)(F)F.[H][C@@]12CCN(CC(=O)NC)C[C@]1([H])CN(C(=O)c1ccccc1C)C2	2.368
Cc1nc(C2CCCN2CCCc2nc3ccccc3o2)no1 (stereo not shown)	13.97
Cc1nc(C)c(CN2CCOC(CN(C)c3cccnn3)C2)s1 (stereo not shown)	-3.79
CN1CCC2(CC1)CN(C(=O)c1ccncc1)Cc1ccccc12	-7.967
CC(=O)Nc1cccc([C@H]2C[C@@H](NC(C)=O)CCO2)c1	14.76 and 12.33 and 0.76
Cc1noc(-c2ccnc(Oc3ccccc3CN3CCCCC3)c2)n1	-20.15
CN(C)c1ccc(NC(=O)CN2CCS(=O)(=O)CC2)cn1	35.18 and 10.39 and 2.6
CC(NC(=O)CN(C)C(C)C)c1ccc(Oc2cccnc2)c(F)c1 (stereo not shown)	8.15
Cc1noc2ncc(C(=O)N3CCCC(n4ccnc4C)C3)cc12 (stereo not shown)	-10.93
CC(C)C1CN(c2ncccn2)CCC(=O)N1Cc1ccc(F)cc1 (stereo not shown)	6.719
CC(C)N1CCC(Cc2cc(-c3ccccc3C(=O)O)ncn2)CC1	0.1185
O=C(C1CCOC1)N1CCC2(CCCNC2)CC1 (stereo not shown)	12.17
CCCN1CCN(CC(O)c2ccc(OC(F)(F)F)cc2)CC1 (stereo not shown)	-8.757
CC(C)(C)c1cnc(CN2CCCCC2Cn2cccn2)o1 (stereo not shown)	8.787
c1nc(N2CCOC(Cn3cncn3)C2)c2cc[nH]c2n1 (stereo not shown)	-1.615
O=C(CS(=O)(=O)c1ccccc1Cl)NC1CCCCNC1=O (stereo not shown)	4.415
O=C(NCc1cn2c(n1)CN(CC1CCOCC1)CC2)C1CCC1.O=C(O)C(F)(F)F	2.48
CNC(=O)N1CCC(NC(=O)c2cnn(C)c2)CC1	10.28
Cc1cc(C)c(CNc2ncnc3ccccc23)c(=O)[nH]1	1.887
C[C@@H]1CN(Cc2ccco2)CCN1C(=O)Cc1ccccc1F	1.101
O=C(O)C(F)(F)F.[H][C@@]12CN(C(=O)CC)CCC[C@]1(C(=O)N(C)C)CN(c1ccccn1)C2	8.263
Cc1cc(C2CCCN(C(=O)CCc3cscn3)C2)n[nH]1 (stereo not shown)	5.08
Cc1ccc(CN2Cc3nnn(C)c3C(COCC(=O)N(C)C)C2)s1.O=C(O)C(F)(F)F (stereo not shown)	6.579
Fc1cccc(-n2ccc(CN3CCCC3Cn3cncn3)n2)c1 (stereo not shown)	7.316 and 0.5549 and 14.57
CC(C)C(=O)N1CCc2c(CN(C)Cc3ccco3)cncc2C1.Cl.Cl	7.083
CCc1nnc(CN2CCC3(CCC(=O)N(C4CCCC4)C3)CC2)o1	-21.75 and -15.43
Cc1nnc(CN2CCN(CCOc3ccccc3C#N)CC2)n1C	5.949
Cc1ccc(CNC(=O)c2ccc(CNS(C)(=O)=O)o2)cc1F	10.1
Cc1noc(C)c1CN1CCC[C@]2(C[C@@H](Oc3ccccn3)CO2)C1.O=C(O)C(F)(F)F.O=C(O)C(F)(F)F	-2.17
Oc1nc(N2CCOCC2)nc2c1CCN(Cc1cccc(F)c1)CC2	5.263
Cc1ccc(CNc2cnn(CC(F)F)c2)cc1C	-9.6
CC(C)CCN(C)C(=O)c1nc(S(C)(=O)=O)n2ccccc12	-0.9662
O=c1c(NCCCO)c(N2CCN(c3ccccc3)CC2)c1=O	1.544
O=c1nc(SCc2ccncc2)c2c(n1CCO)CCCC2	5.785
COC(=O)c1ccc(-c2ccc(/C=C3\C(=O)NC(=N)N3C)o2)cc1	4.269
Cc1cc(C)n(CC2CCCN2C(=O)CCc2cscn2)n1 (stereo not shown)	-17.48
CCN1CCN(C2CCN(Cc3c(C)noc3C)CC2)C1=O	3.207
COc1c(CNC2CCOc3ccccc32)c(C(C)C)nn1C (stereo not shown)	14.45 and -938.8 and -911.5
O=C(O)C1(Cc2cc(-c3ccccc3F)no2)CCOCC1	6.329
O=C(CC1CC1)N1CCN(Cc2ccncc2)c2ncccc2C1.O=C(O)C(F)(F)F.O=C(O)C(F)(F)F	-4.722
O=C(CC1CCN(c2cccnn2)CC1)Nc1nncs1	-2.864
Cc1nccc(N2CCCC(C)(c3[nH]ncc3C(N)=O)C2)n1 (stereo not shown)	-3.645
O=C(CCN1C(=O)CCC1=O)NCC1(c2c(F)cccc2F)CCCC1	6.08
COc1ccc(CN2CCC3(CC2)CCN(CC2CC2)C3=O)cc1.O=C(O)C(F)(F)F	6.035
CC(C)OCCCNC(=O)NCc1cccc(-n2ccnc2)c1	-19.71
O=C(Cc1cccnc1)NCCS(=O)(=O)c1ccccc1F	-16.3
CN1CCOC(CN(C(=O)COc2ccccc2)c2nccs2)C1 (stereo not shown)	5.009
CC(=O)NCC(=O)N1CCN(Cc2ccncc2)c2ncccc2C1	4.08
Cn1cc(C(=O)N2CCCC2c2[nH]ncc2C(N)=O)cn1 (stereo not shown)	-241.3
Cc1cccc(C2(NC(=O)CCN3C(=O)CCC3=O)CCCC2)c1	-5.016
Cc1cc(-c2cnc(N3CCCCCC3)nc2-c2cccnc2C)on1	-0.03575
Cc1cccc(OCCC(=O)N2CCN(S(=O)(=O)N(C)C)CC2)c1C	6.99
CC(C)C1COC2(CCN(Cc3ccco3)CC2)C1.O=C(O)C(F)(F)F (stereo not shown)	6.159
Cc1nc(CN2CCCn3nc(CNC(=O)C4CCC4)cc3C2)co1	-10.96
COc1ccc(C2CC(=O)Oc3cc(C)[nH]c(=O)c32)cc1 (stereo not shown)	12.28
NC(=O)CCN(CC(=O)NCc1cccs1)c1ccc(F)cc1	-4.121
COC(=O)C(C)(C)NC(=O)c1cnc(Cc2ccc(F)cc2)s1	-9.804
CCn1cnnc1CNC(=O)NCC(c1cccs1)N1CCCC1 (stereo not shown)	2.289
COc1cc(OC)nc(N2CCC3(CC2)OCCCC3O)n1 (stereo not shown)	41.25 and 24.29 and 27.54
CCCN(CC(=O)OC)C(=O)c1sc(C)nc1C	-6.77
COCCN1CCN(S(=O)(=O)C2CC2)Cc2cccnc21	6.586
CN(Cc1ccco1)C1CCC12CCN(C(=O)c1ccnnc1)CC2.O=C(O)C(F)(F)F (stereo not shown)	11.8
Cc1nn(C(C)C)c(C)c1NC(=O)c1ccccc1	-10.76

6 of the entries, repeated:

{"compound": "c1nc(N2CCOC(Cn3cncn3)C2)c2cc[nH]c2n1", "stereo": "stereo not shown", "effect": -1.615}
{"compound": "Cc1cc(C)n(CC2CCCN2C(=O)CCc2cscn2)n1", "stereo": "stereo not shown", "effect": -17.48}
{"compound": "Cc1ccc(CNc2cnn(CC(F)F)c2)cc1C", "effect": -9.6}
{"compound": "Cc1cc(C)c(CNc2ncnc3ccccc23)c(=O)[nH]1", "effect": 1.887}
{"compound": "COc1c(CNC2CCOc3ccccc32)c(C(C)C)nn1C", "stereo": "stereo not shown", "effect": "14.45 and -938.8 and -911.5"}
{"compound": "O=C(c1cc2c([nH]c1=O)CCC2)N1CCCC1c1ccccn1", "stereo": "stereo not shown", "effect": 0.355}